Values quoted from earlier work, collected in patent US20210346549A1, “Non-Contact Sanitizing Products and Elements” (Segan Industries, Inc., priority 2020, published 2021).
Some of these results come from one statement about several compounds together.

System: two animal coronaviruses (mouse hepatitis virus, canine)
Settings: 0.05% benzalkonium chloride, 50 ppm iodine in iodophor, 0.23% sodium chlorite, 1% cresol soap, 0.7% formaldehyde; exposure time not given

## Benzalkonium Chloride
  inactivation of two animal coronaviruses: > 3 logs
